Test results from the supplement of paper PMC10849652.
The other results are listed elsewhere or left out.

Amino acid sequences for entries named in this document (tags omitted). A change or cut given only in a name is not applied to a line headed by its entry.
UniProt P24666: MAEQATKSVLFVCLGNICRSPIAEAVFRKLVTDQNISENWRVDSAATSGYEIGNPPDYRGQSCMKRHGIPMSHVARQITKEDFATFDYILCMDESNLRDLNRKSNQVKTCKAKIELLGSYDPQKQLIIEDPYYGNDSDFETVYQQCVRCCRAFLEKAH
UniProt Q96BJ3: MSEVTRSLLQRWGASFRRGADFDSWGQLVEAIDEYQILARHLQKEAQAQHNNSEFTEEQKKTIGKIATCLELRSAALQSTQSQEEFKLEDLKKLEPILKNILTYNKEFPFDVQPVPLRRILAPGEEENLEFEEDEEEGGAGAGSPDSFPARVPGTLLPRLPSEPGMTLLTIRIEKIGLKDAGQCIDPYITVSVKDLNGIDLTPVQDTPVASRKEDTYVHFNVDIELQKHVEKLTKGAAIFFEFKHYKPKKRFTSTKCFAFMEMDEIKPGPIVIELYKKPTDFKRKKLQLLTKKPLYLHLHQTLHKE
UniProt Q6RW13: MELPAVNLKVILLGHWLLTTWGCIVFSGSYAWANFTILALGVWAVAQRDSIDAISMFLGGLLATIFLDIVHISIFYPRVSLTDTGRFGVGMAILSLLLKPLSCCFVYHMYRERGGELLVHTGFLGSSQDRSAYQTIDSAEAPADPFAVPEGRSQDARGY
UniProt P54922: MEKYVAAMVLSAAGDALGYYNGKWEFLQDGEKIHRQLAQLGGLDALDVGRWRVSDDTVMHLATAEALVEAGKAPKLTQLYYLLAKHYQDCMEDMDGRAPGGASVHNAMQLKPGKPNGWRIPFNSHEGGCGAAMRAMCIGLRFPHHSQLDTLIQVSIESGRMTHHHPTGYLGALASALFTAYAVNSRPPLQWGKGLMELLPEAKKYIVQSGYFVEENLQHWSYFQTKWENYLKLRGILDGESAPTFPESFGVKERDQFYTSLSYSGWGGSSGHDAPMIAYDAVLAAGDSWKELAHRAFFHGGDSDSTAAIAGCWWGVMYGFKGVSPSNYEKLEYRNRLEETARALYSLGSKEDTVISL
UniProt P11766: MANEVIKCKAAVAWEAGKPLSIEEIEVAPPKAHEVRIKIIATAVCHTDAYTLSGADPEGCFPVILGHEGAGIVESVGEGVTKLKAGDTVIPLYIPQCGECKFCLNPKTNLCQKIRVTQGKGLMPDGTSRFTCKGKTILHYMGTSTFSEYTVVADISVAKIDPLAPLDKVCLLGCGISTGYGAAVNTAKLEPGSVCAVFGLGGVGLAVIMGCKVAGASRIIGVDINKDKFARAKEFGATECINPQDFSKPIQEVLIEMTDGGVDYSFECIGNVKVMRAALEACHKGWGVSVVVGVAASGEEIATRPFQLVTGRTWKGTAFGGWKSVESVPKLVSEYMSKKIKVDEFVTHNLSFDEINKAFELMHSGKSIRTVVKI
UniProt Q16186: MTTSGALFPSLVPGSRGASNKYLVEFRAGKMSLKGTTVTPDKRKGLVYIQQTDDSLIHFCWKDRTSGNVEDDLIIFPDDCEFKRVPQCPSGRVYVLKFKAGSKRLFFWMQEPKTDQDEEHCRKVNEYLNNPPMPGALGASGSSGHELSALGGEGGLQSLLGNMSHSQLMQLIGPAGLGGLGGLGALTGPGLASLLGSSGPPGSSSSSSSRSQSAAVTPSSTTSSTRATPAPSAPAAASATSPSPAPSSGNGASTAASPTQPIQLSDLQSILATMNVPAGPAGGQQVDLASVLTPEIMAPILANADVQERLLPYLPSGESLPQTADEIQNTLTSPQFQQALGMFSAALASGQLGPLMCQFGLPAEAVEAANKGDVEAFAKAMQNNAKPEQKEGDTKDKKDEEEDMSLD
UniProt P23526: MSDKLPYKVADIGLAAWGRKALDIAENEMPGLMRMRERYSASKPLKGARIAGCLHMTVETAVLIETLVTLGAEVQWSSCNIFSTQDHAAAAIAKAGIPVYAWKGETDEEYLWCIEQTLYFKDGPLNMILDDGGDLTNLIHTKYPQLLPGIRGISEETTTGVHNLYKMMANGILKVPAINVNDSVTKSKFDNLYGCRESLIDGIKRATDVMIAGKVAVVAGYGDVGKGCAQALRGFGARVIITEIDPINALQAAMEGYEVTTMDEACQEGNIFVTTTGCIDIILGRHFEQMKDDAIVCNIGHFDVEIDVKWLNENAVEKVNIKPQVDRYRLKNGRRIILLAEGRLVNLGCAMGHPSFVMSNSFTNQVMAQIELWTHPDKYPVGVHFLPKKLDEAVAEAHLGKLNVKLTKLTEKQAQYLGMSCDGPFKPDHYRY
UniProt Q9UPW5: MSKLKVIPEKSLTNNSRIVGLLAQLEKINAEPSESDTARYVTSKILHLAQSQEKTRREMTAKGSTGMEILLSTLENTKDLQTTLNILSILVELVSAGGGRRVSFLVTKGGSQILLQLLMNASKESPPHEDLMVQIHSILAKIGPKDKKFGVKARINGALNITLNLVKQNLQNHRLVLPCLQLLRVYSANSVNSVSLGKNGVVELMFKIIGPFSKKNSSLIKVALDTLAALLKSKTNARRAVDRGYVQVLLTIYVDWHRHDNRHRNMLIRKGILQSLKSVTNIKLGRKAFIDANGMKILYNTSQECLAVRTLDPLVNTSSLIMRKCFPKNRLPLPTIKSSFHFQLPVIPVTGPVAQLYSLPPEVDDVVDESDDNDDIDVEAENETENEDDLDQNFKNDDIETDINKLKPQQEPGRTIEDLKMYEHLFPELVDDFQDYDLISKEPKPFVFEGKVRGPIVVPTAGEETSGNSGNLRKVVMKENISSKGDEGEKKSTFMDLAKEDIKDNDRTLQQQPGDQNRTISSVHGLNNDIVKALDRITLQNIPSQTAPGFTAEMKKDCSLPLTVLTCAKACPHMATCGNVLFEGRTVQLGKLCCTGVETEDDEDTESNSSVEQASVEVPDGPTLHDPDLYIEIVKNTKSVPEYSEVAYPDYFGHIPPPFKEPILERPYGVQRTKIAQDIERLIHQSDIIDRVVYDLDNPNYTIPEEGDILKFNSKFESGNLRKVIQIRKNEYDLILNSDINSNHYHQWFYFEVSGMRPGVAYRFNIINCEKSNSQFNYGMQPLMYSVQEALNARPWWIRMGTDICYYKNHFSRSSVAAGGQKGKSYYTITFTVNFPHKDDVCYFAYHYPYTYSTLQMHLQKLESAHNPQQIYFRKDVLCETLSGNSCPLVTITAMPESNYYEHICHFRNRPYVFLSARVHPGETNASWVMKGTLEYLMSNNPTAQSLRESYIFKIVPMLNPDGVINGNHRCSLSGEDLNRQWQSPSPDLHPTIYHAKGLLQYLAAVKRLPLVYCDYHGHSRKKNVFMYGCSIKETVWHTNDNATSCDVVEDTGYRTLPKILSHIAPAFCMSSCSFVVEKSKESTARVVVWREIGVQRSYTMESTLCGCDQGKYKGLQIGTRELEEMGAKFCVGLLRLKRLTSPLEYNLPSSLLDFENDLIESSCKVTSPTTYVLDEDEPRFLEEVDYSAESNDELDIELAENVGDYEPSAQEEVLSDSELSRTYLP
UniProt Q7Z6V5: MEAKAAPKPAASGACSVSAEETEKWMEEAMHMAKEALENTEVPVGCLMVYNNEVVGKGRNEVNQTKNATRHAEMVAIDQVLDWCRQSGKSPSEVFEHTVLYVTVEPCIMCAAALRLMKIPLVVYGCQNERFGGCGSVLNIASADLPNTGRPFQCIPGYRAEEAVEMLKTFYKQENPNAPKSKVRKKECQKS
UniProt Q9BV57: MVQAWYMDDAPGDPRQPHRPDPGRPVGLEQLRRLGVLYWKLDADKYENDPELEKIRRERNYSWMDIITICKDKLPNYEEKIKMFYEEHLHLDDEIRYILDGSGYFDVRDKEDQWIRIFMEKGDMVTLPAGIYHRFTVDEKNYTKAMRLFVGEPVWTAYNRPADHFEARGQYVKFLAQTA
UniProt Q9Y305: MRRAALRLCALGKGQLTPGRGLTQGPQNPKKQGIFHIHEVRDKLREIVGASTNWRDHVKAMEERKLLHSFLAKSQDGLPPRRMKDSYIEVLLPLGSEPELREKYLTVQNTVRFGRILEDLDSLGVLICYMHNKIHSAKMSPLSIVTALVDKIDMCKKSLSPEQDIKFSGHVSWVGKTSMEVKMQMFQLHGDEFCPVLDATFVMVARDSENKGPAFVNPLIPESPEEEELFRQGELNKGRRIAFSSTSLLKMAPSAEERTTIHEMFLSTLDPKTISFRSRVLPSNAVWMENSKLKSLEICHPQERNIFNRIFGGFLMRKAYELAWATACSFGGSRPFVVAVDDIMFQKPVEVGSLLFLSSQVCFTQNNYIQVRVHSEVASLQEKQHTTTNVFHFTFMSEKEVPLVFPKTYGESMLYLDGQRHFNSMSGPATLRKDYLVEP
UniProt O00116: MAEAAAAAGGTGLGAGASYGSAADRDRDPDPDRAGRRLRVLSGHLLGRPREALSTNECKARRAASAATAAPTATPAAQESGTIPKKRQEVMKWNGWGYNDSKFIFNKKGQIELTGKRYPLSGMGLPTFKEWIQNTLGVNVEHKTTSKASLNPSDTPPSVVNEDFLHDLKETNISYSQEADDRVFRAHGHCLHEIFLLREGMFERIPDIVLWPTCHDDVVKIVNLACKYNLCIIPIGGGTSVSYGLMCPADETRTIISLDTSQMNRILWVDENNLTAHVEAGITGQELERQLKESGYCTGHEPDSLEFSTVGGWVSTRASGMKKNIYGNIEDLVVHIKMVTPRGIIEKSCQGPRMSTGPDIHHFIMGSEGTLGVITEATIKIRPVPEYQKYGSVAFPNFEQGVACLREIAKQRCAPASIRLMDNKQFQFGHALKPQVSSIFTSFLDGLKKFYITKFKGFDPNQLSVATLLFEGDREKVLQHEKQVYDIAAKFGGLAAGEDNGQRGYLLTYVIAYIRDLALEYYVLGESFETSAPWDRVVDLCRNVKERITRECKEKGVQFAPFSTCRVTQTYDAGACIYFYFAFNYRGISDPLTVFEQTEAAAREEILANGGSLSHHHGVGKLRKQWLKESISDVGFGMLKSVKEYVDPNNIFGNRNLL
UniProt P52895: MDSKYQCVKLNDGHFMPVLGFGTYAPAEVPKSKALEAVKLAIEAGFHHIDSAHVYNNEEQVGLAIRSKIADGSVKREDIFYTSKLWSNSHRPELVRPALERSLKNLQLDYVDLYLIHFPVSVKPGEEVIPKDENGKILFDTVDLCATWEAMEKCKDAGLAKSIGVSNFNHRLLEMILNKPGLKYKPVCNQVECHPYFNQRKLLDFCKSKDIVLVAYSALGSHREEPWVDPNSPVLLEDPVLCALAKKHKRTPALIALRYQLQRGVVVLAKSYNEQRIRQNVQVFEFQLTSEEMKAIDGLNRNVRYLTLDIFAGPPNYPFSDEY
UniProt Q9UHB7: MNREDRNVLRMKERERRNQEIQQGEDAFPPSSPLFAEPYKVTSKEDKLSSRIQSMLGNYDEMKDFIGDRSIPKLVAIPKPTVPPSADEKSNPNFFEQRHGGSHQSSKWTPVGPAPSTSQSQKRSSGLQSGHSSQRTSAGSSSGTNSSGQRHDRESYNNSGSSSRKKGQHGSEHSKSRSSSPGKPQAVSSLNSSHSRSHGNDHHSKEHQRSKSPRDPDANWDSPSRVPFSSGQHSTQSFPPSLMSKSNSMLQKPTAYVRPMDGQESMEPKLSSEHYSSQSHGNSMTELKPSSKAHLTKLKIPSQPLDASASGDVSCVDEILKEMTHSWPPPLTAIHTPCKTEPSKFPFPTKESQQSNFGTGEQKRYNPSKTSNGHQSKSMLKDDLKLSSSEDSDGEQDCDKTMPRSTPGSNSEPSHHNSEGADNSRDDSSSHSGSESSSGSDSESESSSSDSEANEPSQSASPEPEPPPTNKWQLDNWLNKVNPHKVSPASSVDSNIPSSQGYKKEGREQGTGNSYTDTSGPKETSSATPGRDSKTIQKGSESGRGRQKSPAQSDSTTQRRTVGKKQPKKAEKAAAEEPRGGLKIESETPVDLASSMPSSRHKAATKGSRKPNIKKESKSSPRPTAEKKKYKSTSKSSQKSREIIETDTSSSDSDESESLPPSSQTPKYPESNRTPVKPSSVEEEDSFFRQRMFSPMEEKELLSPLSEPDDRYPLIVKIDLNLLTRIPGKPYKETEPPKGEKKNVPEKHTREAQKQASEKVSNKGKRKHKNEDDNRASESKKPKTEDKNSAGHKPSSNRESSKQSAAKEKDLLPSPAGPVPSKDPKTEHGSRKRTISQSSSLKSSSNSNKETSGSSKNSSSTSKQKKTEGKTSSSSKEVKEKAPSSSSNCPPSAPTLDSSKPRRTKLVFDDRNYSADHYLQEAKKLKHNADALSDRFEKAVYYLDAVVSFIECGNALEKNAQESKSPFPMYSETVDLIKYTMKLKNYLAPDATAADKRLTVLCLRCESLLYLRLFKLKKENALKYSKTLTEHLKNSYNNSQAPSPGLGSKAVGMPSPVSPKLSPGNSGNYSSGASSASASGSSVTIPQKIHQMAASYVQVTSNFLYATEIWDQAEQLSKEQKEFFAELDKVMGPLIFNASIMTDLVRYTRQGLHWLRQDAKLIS

compound: Cc1ccc(-n2nc(C(C)(C)C)cc2NC(=O)Nc2ccc(OCCN3CCOCC3)c3ccccc23)cc1 [doramapimod]; assay: log2 fold change, soluble protein after heating vs DMSO (PISA); higher = thermal stabilisation; K562 lysate, 10 uM; active = over 0.2 and 3.5 SD of the protein, either way, in both replicates (recomputed)
Outline: (§1)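 To prepare the extract, K562 pellets were dounce-homogenised in PBS pH 7.4 with 1 mM MgCl2, giving crude material at 1 mg/mL protein. This was treated with 10 μM compound for 30 min, then heated in aliquots for 3 min over 48°C-58°C before pooling and addition of NP-40 to 0.5% at 4°C. Centrifugation at 21,000xg for 90 min left soluble protein in the supernatant, which TMTpro 16plex LC-MS/MS quantified with equalised channel sums. Results are log-two fold changes in thermal stability compared with solvent controls, from duplicates.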

Target | log2 fold change
ACP1 (UniProt P24666) | inactive: -0.073
ACTN4 (UniProt K7EJH8) | inactive: 0.087
ACSL3 (UniProt O95573) | inactive: 0.008
AIDA (UniProt Q96BJ3) | inactive: -0.005
AIMP2 (UniProt Q13155) | inactive: 0.029
AGTRAP (UniProt Q6RW13) | inactive: -0.003
ADPRH (UniProt P54922) | inactive: 0.024
ADH5 (UniProt P11766) | inactive: -0.01
ACTA1 (UniProt P68133) | inactive: -0.008
AKR7A2 (UniProt O43488) | inactive: 0.018
AGO3 (UniProt Q9H9G7) | inactive: -0.009
ADRM1 (UniProt Q16186) | inactive: 0.042
AHSA1 (UniProt O95433) | inactive: -0.014
ADAMTS5 (UniProt Q9UNA0) | inactive: 0.04
AHCY (UniProt P23526) | inactive: 0.011
ACTR2 (UniProt P61160) | inactive: 0.002
ADAM9 (UniProt Q13443) | inactive: 0.057

Target | log2 fold change
AIMP1 isoform 2 (UniProt Q12904) | inactive: -0.015
ACTB, A0A2R8Y793 | inactive: -0.023
ACTN1 isoform 3 (UniProt P12814) | inactive: 0.004
AGTPBP1 (UniProt Q9UPW5) | inactive: 0.007
ADAT2 (UniProt Q7Z6V5) | inactive: 0.001
ADPRHL2 (UniProt Q9NX46) | inactive: -0.048
AFDN (UniProt J3KN01) | inactive: 0.042
AGAP3 isoform 4 (UniProt Q96P47) | inactive: -0.002
ADI1 (UniProt Q9BV57) | inactive: 0.038
ACOT9 isoform 4 (UniProt Q9Y305) | inactive: 0.028
ACTR6 (UniProt Q9GZN1) | inactive: 0.128
ADD1 isoform 3 (UniProt P35611) | inactive: 0.002
AGPS (UniProt O00116) | inactive: 0.025
AKR1C2 (UniProt P52895) | inactive: -0.011
ADGRE2 (UniProt Q9UHX3) | inactive: -0.031
AFF4 (UniProt Q9UHB7) | inactive: 0

compound: Cc1ccc(NC(=O)c2ccc(CN3CC[C@H](N(C)C)C3)c(C(F)(F)F)c2)cc1Nc1nccc(-c2cncnc2)n1 [bafetinib]; assay: as above
Outline: as §1

Target | log2 fold change
ACP1 (UniProt P24666) | inactive: 0.016
ACTN4 (UniProt K7EJH8) | inactive: -0.02
ACSL3 (UniProt O95573) | inactive: 0.008
AIDA (UniProt Q96BJ3) | inactive: -0.024
AIMP2 (UniProt Q13155) | inactive: -0.03
AGTRAP (UniProt Q6RW13) | inactive: -0.041
ADPRH (UniProt P54922) | inactive: -0.029
ADH5 (UniProt P11766) | inactive: -0.021
ACTA1 (UniProt P68133) | inactive: -0.007
AKR7A2 (UniProt O43488) | inactive: -0.002
AGO3 (UniProt Q9H9G7) | inactive: -0.066
ADRM1 (UniProt Q16186) | inactive: 0.006
AHSA1 (UniProt O95433) | inactive: 0.04
ADAMTS5 (UniProt Q9UNA0) | inactive: -0.211
AHCY (UniProt P23526) | inactive: 0.051
ACTR2 (UniProt P61160) | inactive: 0.036
ADAM9 (UniProt Q13443) | inactive: 0.035

Target | log2 fold change
AIMP1 isoform 2 (UniProt Q12904) | inactive: -0.041
ACTB, A0A2R8Y793 | inactive: 0.015
ACTN1 isoform 3 (UniProt P12814) | inactive: 0.04
AGTPBP1 (UniProt Q9UPW5) | inactive: 0.001
ADAT2 (UniProt Q7Z6V5) | inactive: 0.028
ADPRHL2 (UniProt Q9NX46) | inactive: -0.012
AFDN (UniProt J3KN01) | inactive: -0.052
AGAP3 isoform 4 (UniProt Q96P47) | inactive: -0.076
ADI1 (UniProt Q9BV57) | inactive: -0.034
ACOT9 isoform 4 (UniProt Q9Y305) | inactive: -0.023
ACTR6 (UniProt Q9GZN1) | inactive: 0.011
ADD1 isoform 3 (UniProt P35611) | inactive: 0.002
AGPS (UniProt O00116) | inactive: 0.002
AKR1C2 (UniProt P52895) | inactive: 0.108
ADGRE2 (UniProt Q9UHX3) | inactive: -0.019
AFF4 (UniProt Q9UHB7) | inactive: 0.05

compound: Cc1cccc(CC(=O)N2CCc3c2ccc(-c2cn(C)c4ncnc(N)c24)c3F)n1; assay: as above
Outline: as §1

Target | log2 fold change
ACP1 (UniProt P24666) | inactive: -0.027
ACTN4 (UniProt K7EJH8) | inactive: -0.095
ACSL3 (UniProt O95573) | inactive: 0.051
AIDA (UniProt Q96BJ3) | inactive: -0.006
AIMP2 (UniProt Q13155) | inactive: -0.032
AGTRAP (UniProt Q6RW13) | inactive: 0.215
ADPRH (UniProt P54922) | inactive: 0.031
ADH5 (UniProt P11766) | inactive: -0.012
ACTA1 (UniProt P68133) | inactive: -0.032
AKR7A2 (UniProt O43488) | inactive: -0.021
AGO3 (UniProt Q9H9G7) | inactive: -0.018
ADRM1 (UniProt Q16186) | inactive: 0.02
AHSA1 (UniProt O95433) | inactive: -0.039
ADAMTS5 (UniProt Q9UNA0) | inactive: 0.33
AHCY (UniProt P23526) | inactive: 0.008
ACTR2 (UniProt P61160) | inactive: -0.026
ADAM9 (UniProt Q13443) | inactive: 0.038

Target | log2 fold change
AIMP1 isoform 2 (UniProt Q12904) | inactive: -0.012
ACTB, A0A2R8Y793 | inactive: -0.032
ACTN1 isoform 3 (UniProt P12814) | inactive: -0.034
AGTPBP1 (UniProt Q9UPW5) | inactive: 0.113
ADAT2 (UniProt Q7Z6V5) | inactive: 0.012
ADPRHL2 (UniProt Q9NX46) | inactive: 0.059
AFDN (UniProt J3KN01) | inactive: 0.1
AGAP3 isoform 4 (UniProt Q96P47) | inactive: 0.007
ADI1 (UniProt Q9BV57) | inactive: 0.086
ACOT9 isoform 4 (UniProt Q9Y305) | inactive: -0.082
ACTR6 (UniProt Q9GZN1) | inactive: 0.09
ADD1 isoform 3 (UniProt P35611) | inactive: -0.019
AGPS (UniProt O00116) | inactive: 0.083
AKR1C2 (UniProt P52895) | inactive: 0.18
ADGRE2 (UniProt Q9UHX3) | inactive: -0.006
AFF4 (UniProt Q9UHB7) | inactive: 0.001
